The source of these data is the supplement of paper PMC6411743.

Chains of the proteins cited; added tags and fusions are not shown. Lines headed by an entry give the natural chain unless they say otherwise; changes in a name come on top.
UniProt P49590: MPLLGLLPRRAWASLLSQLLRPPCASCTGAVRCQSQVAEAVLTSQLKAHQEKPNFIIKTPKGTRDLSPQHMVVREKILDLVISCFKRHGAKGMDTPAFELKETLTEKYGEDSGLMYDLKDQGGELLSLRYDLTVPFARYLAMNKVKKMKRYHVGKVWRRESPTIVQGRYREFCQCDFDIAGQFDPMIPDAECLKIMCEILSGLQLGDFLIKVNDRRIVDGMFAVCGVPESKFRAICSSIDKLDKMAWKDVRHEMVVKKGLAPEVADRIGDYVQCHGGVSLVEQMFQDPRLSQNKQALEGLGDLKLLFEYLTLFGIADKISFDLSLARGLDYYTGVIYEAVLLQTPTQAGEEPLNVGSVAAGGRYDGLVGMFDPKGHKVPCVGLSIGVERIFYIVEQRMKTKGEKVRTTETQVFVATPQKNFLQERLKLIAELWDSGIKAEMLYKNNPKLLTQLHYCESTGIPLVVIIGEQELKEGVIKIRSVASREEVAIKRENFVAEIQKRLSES
UniProt P49336: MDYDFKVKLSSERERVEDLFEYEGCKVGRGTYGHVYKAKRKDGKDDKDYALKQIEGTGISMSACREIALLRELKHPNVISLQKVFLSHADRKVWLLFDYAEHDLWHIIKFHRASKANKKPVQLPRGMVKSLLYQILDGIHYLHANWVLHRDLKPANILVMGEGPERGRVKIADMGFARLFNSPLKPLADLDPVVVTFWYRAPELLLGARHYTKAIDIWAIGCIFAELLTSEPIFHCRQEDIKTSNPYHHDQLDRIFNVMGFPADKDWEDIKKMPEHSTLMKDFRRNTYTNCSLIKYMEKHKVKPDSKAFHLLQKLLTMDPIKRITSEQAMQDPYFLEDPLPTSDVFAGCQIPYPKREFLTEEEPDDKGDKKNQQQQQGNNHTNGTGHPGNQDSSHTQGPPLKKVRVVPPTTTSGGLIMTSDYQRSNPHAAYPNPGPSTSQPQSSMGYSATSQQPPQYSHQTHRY
UniProt P51991: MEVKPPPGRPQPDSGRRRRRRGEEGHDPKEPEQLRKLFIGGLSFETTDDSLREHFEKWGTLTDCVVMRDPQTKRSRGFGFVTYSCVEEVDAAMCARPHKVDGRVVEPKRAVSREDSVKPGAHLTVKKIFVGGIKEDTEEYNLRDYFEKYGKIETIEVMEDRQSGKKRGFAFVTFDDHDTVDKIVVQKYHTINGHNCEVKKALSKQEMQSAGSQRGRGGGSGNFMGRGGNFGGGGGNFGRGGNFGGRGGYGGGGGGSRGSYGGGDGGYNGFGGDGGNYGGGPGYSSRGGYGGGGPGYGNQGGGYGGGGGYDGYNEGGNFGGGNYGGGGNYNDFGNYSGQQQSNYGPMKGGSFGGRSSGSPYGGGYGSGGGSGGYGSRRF
UniProt P48047: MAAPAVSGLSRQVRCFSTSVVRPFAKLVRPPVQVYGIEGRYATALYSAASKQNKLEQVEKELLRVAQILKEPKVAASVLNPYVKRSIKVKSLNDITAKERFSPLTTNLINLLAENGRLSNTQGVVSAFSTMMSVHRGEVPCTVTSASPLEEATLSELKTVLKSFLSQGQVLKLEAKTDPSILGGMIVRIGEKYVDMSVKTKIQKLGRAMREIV
UniProt P50416: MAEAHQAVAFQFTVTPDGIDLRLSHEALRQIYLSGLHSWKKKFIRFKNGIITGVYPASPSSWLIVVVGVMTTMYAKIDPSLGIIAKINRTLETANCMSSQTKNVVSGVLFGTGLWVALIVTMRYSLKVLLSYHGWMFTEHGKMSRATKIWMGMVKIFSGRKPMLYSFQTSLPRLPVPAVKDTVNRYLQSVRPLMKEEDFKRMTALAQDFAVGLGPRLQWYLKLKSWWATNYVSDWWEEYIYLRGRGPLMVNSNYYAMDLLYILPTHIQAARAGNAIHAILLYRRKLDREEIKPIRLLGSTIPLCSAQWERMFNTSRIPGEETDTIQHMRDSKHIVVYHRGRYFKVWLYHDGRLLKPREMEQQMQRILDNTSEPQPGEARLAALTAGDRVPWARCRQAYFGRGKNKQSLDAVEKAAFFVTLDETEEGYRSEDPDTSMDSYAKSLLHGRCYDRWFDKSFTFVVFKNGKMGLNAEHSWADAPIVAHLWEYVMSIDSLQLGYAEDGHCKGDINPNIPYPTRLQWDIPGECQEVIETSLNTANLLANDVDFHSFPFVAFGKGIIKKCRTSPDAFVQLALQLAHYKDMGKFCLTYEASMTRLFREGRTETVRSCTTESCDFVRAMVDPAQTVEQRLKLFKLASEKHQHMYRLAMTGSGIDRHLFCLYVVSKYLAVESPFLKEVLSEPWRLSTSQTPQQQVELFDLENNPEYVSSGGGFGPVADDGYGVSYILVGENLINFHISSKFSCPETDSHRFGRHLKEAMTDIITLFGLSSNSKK
UniProt P49247: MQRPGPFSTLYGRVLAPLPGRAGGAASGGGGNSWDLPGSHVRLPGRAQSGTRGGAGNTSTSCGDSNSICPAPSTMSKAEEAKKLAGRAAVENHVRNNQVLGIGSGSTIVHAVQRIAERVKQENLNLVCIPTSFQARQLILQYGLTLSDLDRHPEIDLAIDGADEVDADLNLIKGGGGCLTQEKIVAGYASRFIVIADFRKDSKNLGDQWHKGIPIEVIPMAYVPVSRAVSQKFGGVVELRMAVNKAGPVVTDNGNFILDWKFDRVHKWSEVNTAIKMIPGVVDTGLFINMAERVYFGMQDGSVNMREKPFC
UniProt P49366: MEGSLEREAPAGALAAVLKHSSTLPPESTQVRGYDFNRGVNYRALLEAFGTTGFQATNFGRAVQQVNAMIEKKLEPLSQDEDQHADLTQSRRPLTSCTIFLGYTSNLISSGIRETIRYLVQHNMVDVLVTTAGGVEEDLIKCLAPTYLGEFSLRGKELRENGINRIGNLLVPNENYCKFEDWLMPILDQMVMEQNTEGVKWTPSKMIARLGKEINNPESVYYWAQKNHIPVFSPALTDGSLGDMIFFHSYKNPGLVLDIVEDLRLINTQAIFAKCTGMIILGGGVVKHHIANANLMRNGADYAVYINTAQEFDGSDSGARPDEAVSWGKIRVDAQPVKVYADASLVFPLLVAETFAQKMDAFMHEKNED
UniProt P39687: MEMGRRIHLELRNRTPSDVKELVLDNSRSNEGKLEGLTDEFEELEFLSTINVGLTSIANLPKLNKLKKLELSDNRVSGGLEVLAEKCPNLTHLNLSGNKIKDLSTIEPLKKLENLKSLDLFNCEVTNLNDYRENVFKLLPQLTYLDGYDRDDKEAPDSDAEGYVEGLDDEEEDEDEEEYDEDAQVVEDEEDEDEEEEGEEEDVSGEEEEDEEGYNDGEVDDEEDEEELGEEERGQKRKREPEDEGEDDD
UniProt P40763, whole entry: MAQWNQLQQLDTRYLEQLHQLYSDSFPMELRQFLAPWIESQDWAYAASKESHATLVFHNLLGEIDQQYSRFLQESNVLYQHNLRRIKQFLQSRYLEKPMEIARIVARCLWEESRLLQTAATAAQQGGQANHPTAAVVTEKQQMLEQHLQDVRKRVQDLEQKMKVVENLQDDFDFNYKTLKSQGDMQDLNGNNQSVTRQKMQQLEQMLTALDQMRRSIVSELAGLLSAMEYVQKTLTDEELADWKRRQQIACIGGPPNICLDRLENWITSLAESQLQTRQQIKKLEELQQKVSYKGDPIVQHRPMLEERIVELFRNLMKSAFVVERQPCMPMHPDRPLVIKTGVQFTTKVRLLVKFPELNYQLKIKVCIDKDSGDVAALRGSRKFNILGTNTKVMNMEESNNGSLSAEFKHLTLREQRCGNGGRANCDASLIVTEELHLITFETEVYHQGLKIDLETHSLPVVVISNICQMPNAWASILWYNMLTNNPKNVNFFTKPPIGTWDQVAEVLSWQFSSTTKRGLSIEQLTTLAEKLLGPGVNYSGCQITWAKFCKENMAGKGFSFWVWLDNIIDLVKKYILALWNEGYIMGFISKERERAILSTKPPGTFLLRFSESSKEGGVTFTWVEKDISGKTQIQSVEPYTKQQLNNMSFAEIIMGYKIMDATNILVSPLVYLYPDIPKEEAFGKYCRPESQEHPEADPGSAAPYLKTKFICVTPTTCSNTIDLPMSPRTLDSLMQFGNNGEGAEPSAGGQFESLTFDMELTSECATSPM
UniProt P49368: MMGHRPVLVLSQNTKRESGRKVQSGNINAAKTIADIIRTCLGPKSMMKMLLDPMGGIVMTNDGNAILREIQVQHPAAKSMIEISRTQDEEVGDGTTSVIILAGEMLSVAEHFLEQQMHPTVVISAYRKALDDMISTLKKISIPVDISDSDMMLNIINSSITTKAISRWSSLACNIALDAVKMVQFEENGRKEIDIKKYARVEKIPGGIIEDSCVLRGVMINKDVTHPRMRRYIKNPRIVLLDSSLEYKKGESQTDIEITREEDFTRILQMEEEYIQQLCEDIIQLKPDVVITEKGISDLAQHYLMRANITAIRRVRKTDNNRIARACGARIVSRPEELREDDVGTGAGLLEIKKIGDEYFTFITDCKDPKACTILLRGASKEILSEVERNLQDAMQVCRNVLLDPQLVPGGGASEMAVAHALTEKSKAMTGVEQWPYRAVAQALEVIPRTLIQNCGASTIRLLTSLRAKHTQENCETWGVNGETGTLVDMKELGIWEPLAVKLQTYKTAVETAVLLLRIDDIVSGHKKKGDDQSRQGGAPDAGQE
UniProt P49006: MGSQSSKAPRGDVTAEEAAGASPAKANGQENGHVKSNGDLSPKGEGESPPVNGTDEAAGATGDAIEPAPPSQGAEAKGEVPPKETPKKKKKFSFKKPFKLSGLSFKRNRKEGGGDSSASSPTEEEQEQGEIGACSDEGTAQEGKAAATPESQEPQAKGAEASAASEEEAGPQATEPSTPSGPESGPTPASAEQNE
UniProt P41250: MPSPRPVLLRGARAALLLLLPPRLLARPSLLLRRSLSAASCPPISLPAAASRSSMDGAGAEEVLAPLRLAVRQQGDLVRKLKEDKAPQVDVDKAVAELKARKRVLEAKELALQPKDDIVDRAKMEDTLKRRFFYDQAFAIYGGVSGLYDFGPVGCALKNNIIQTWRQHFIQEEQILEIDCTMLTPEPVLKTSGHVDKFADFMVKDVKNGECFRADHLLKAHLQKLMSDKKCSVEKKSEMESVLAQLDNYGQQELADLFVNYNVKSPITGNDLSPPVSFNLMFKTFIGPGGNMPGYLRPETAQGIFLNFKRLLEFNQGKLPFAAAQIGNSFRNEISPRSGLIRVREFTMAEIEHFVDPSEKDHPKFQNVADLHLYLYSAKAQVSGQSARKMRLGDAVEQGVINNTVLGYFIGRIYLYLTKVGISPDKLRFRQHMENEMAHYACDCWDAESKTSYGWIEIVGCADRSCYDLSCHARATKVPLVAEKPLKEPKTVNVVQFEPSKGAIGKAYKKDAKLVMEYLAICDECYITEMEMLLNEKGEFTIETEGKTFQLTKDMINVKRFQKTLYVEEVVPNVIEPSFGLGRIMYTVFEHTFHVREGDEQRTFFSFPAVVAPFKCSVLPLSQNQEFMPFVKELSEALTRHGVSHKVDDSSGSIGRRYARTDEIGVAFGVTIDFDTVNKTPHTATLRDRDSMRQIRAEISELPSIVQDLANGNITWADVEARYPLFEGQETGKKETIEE
UniProt P36873, whole entry, looked up: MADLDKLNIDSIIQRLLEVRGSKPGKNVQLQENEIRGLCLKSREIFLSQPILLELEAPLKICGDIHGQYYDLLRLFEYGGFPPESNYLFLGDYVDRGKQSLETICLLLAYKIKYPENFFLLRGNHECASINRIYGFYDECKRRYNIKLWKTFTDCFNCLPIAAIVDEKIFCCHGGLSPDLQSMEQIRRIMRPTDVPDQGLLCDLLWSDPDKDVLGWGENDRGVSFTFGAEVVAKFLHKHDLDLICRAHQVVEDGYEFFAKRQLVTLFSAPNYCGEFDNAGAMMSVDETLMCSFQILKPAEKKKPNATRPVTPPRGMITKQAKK

Compound in the assay: Nc1ncnc2c1ncn2[C@@H]1O[C@H](COP(=O)(O)OP(=O)(O)OP(=O)(O)O)[C@@H](O)[C@H]1O [adenosine triphosphate]
The experiment in a line: NP40-soluble protein abundance relative to vehicle (solubility fold change) (ratio); higher = more soluble protein in presence of ATP. The procedure, abridged:
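In three independent experiments, Jurkat crude lysate made by Dounce homogenisation was treated for 10 min at room temperature and then 3 min at 37 °C with eight concentrations ranging from 0.1 to 10 mM. It was then solubilised with 0.8% NP40 plus benzonase for 60 min at 4 °C and ultracentrifuged. The supernatant was TMT-labelled for LC-MS/MS, and each value is the fold change against the detergent-processed vehicle for the same replicate, using vsn-normalised intensities.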

± gives the standard deviation of the averaged measurements. The entries are a selection whose mix differs from that of the whole data set.

Turning to UniProt P49590 and related entries, the NP40-soluble protein abundance reads like this: (concentration: 1mM) 1 ± 0.086; (concentration: 2mM) 0.994 ± 0.074; (concentration: 4mM) 0.969 ± 0.061; (concentration: 6mM) 0.956 ± 0.079; (concentration: 8mM) 1 ± 0.074; (concentration: 10mM) 0.977 ± 0.07.
As to UniProt P49336 and related entries, the NP40-soluble protein abundance runs as follows: (concentration: 1mM) 1.08 ± 0.074; (concentration: 2mM) 1 ± 0.12; (concentration: 4mM) 0.988 ± 0.067; (concentration: 6mM) 1.07 ± 0.12; (concentration: 8mM) 1.03 ± 0.056; (concentration: 10mM) 1.01 ± 0.035.
As for UniProt P51991 and related entries, the NP40-soluble protein abundance (concentration: 1mM) was found to be 1.09 ± 0.14; the NP40-soluble protein abundance (concentration: 2mM) is 1.07 ± 0.14; the NP40-soluble protein abundance (concentration: 4mM) is 1.01 ± 0.12; the NP40-soluble protein abundance (concentration: 6mM) stood at 1.18 ± 0.25; the NP40-soluble protein abundance (concentration: 8mM) was found to be 1.14 ± 0.17; the NP40-soluble protein abundance (concentration: 10mM) was 1.29 ± 0.23.
For the target UniProt P48047, the NP40-soluble protein abundance is, setting by setting: (concentration: 1mM) 0.95 ± 0.064; (concentration: 2mM) 0.907 ± 0.045; (concentration: 4mM) 0.872 ± 0.064; (concentration: 6mM) 0.866 ± 0.084; (concentration: 8mM) 0.881 ± 0.092; (concentration: 10mM) 0.818 ± 0.046.
Take UniProt P51795-2|P51795: the NP40-soluble protein abundance reads like this: (concentration: 1mM) 1.03 ± 0.12; (concentration: 2mM) 0.958 ± 0.03; (concentration: 4mM) 1.05 ± 0.13; (concentration: 6mM) 0.96 ± 0.072; (concentration: 8mM) 0.988 ± 0.055; (concentration: 10mM) 0.972 ± 0.051.
On to CPT1A (UniProt P50416), for which the NP40-soluble protein abundance was 0.997 ± 0.096 (concentration: 1mM); 1 ± 0.072 (concentration: 2mM); 1.03 ± 0.052 (concentration: 4mM); 0.954 ± 0.063 (concentration: 6mM); 1.09 ± 0.012 (concentration: 8mM); 1.09 ± 0.032 (concentration: 10mM).
RPIA (UniProt P49247): the NP40-soluble protein abundance came out at 0.962 ± 0.037 (concentration: 1mM); 0.97 ± 0.039 (concentration: 2mM); 0.928 ± 0.053 (concentration: 4mM); 0.927 ± 0.092 (concentration: 6mM); 0.941 ± 0.031 (concentration: 8mM); 0.946 ± 0.022 (concentration: 10mM).
For the target DHPS (UniProt P49366), the NP40-soluble protein abundance (concentration: 1mM) was found to be 0.994 ± 0.014; the NP40-soluble protein abundance (concentration: 2mM) was 0.993 ± 0.017; the NP40-soluble protein abundance (concentration: 4mM) came to 0.977 ± 0.018; the NP40-soluble protein abundance (concentration: 6mM) was 0.993 ± 0.015; the NP40-soluble protein abundance (concentration: 8mM) came to 0.976 ± 0.011; the NP40-soluble protein abundance (concentration: 10mM) came out at 0.96 ± 0.025.
ANP32A (UniProt P39687): the NP40-soluble protein abundance came out at 0.908 ± 0.14 (concentration: 1mM); 0.878 ± 0.13 (concentration: 2mM); 0.828 ± 0.06 (concentration: 4mM); 0.91 ± 0.12 (concentration: 6mM); 0.806 ± 0.019 (concentration: 8mM); 0.748 ± 0.12 (concentration: 10mM).
Turning to UniProt P40763 and related entries, the NP40-soluble protein abundance was found to be 0.994 ± 0.057 (concentration: 1mM); 1.01 ± 0.058 (concentration: 2mM); 0.975 ± 0.036 (concentration: 4mM); 0.987 ± 0.077 (concentration: 6mM); 0.983 ± 0.022 (concentration: 8mM); 0.986 ± 0.028 (concentration: 10mM).
Turning to RPS19 (UniProt P39019), the NP40-soluble protein abundance reads like this: (concentration: 1mM) 0.863 ± 0.16; (concentration: 2mM) 0.786 ± 0.19; (concentration: 4mM) 0.74 ± 0.17; (concentration: 6mM) 0.769 ± 0.24; (concentration: 8mM) 0.573 ± 0.14; (concentration: 10mM) 0.683 ± 0.17.
For the target CCT3 (UniProt P49368), the NP40-soluble protein abundance reads like this: (concentration: 1mM) 0.977 ± 0.074; (concentration: 2mM) 0.904 ± 0.037; (concentration: 4mM) 0.844 ± 0.03; (concentration: 6mM) 0.83 ± 0.11; (concentration: 8mM) 0.864 ± 0.067; (concentration: 10mM) 0.834 ± 0.063.
As for MARCKSL1 (UniProt P49006), the NP40-soluble protein abundance was determined as 0.809 ± 0.11 (concentration: 1mM); 0.814 ± 0.17 (concentration: 2mM); 0.784 ± 0.17 (concentration: 4mM); 0.79 ± 0.15 (concentration: 6mM); 0.72 ± 0.098 (concentration: 8mM); 0.761 ± 0.23 (concentration: 10mM).
In the case of UniProt P41250, the NP40-soluble protein abundance turned out to be 0.976 ± 0.04 (concentration: 1mM); 0.962 ± 0.044 (concentration: 2mM); 0.923 ± 0.043 (concentration: 4mM); 0.948 ± 0.078 (concentration: 6mM); 0.948 ± 0.044 (concentration: 8mM); 0.935 ± 0.05 (concentration: 10mM).
As for UniProt P36873 and related entries, the NP40-soluble protein abundance is, setting by setting: (concentration: 1mM) 0.942 ± 0.098; (concentration: 2mM) 0.935 ± 0.034; (concentration: 4mM) 0.958 ± 0.1; (concentration: 6mM) 0.925 ± 0.093; (concentration: 8mM) 0.994 ± 0.092; (concentration: 10mM) 0.948 ± 0.03.
